In patent US20180362558A1, “AQUEOUS CURABLE COMPOSITION AND WATER-SOLUBLE PHOTOPOLYMERIZATION INITIATOR” (FUJIFILM CORPORATION, priority 2016, published 2018):
Some entries repeat one wording, which the source may state once for all of them.

Legend:
[1] = Evaluation of curing properties (sensitivity evaluation): rubbing of the UV-cured printed image; design: key: A: The image on the printed surface was not separated.; B: The image on the printed surface was slightly separated.; C: The image on the printed surface was separated at a practically unacceptable level
[2] = Evaluation of discharge performance: ink jet nozzle ejection after standing time
[3] = aqueous magenta ink: initiator 5 mass %, N-[Tris(3-acrylamidopropoxymethyl)methyl]acrylamide 10 mass %, N,N′-Methylenebis(acrylamide) 10 mass %, UV 600 mJ/cm^2
[4] = aqueous magenta ink: initiator 5 mass %, N-[Tris(3-acrylamidopropoxymethyl)methyl]acrylamide 10 mass %, N,N′-Methylenebis(acrylamide) 10 mass %
[5] = Example 31: initiator 0.1 part by mass, N-[Tris(3-acrylamidopropoxymethyl)methyl]acrylamide 10, N,N′-Methylenebis(acrylamide) 10
[6] = Example 32: initiator 1 part by mass, N-[Tris(3-acrylamidopropoxymethyl)methyl]acrylamide 10, N,N′-Methylenebis(acrylamide) 10
[7] = Example 33: initiator 3 part by mass, N-[Tris(3-acrylamidopropoxymethyl)methyl]acrylamide 10, N,N′-Methylenebis(acrylamide) 10
[8] = Example 34: initiator 10 part by mass, N-[Tris(3-acrylamidopropoxymethyl)methyl]acrylamide 10, N,N′-Methylenebis(acrylamide) 10
[9] = Example 35: initiator 5 part by mass, N-[Tris(3-acrylamidopropoxymethyl)methyl]acrylamide 3, N,N′-Methylenebis(acrylamide) 3
[10] = Example 36: initiator 5 part by mass, N-[Tris(3-acrylamidopropoxymethyl)methyl]acrylamide 5, N,N′-Methylenebis(acrylamide) 5
[11] = Example 37: initiator 5 part by mass, N-[Tris(3-acrylaminopropoxymethyl)methyl]acrylamide 20, N,N′-Methylenebis(acrylamide) 20
[12] = Examples 38 to 40: initiator 5 part by mass, Blemmer ADE400A 10, acryloylmorpholine 10

| Compound | Sensitivity [1, 3] | Discharge performance [2, 4] | further results |
| --- | --- | --- | --- |
| Cc1cc(C)c(C(=O)P(=O)(c2ccccc2)c2ccccc2)c(C)c1COCC(=O)O [Comparative compound 1, reference compound] | B | C (At a standing time of shorter than 20 minutes, some nozzles cannot eject droplets.) |  |
| CC[N+](CC)(CC)CC(=O)c1c(C)cc(C)c(C(=O)P(=O)(c2ccccc2)c2ccccc2)c1C.[Cl-] [Compound A-1] | A | A (At a standing time of 30 minutes or longer and shorter than 45 minutes, some nozzles cannot eject droplets.) | Sensitivity [1, 5]: B; Sensitivity [1, 6]: B; Sensitivity [1, 7]: A; Sensitivity [1, 8]: A; Sensitivity [1, 9]: B; Sensitivity [1, 10]: A; Sensitivity [1, 11]: A; Sensitivity [1, 12]: A; Discharge performance [2, 5]: A (At a standing time of 30 minutes or longer and shorter than 45 minutes, some nozzles cannot eject droplets.); Discharge performance [2, 6]: A (At a standing time of 30 minutes or longer and shorter than 45 minutes, some nozzles cannot eject droplets.); Discharge performance [2, 7]: A (At a standing time of 30 minutes or longer and shorter than 45 minutes, some nozzles cannot eject droplets.); Discharge performance [2, 8]: A (At a standing time of 30 minutes or longer and shorter than 45 minutes, some nozzles cannot eject droplets.); Discharge performance [2, 9]: A (At a standing time of 30 minutes or longer and shorter than 45 minutes, some nozzles cannot eject droplets.); Discharge performance [2, 10]: A (At a standing time of 30 minutes or longer and shorter than 45 minutes, some nozzles cannot eject droplets.); Discharge performance [2, 11]: B (At a standing time of 20 minutes or longer and shorter than 30 minutes, some nozzles cannot eject droplets.); Discharge performance [2, 12]: A (At a standing time of 30 minutes or longer and shorter than 45 minutes, some nozzles cannot eject droplets.) |
| CC[N+](CC)(CC)CC(=O)c1c(C)cc(C)c(C(=O)P(=O)(c2ccccc2)c2ccccc2)c1C.[I-] [Compound A-3] | A | A (At a standing time of 30 minutes or longer and shorter than 45 minutes, some nozzles cannot eject droplets.) | Sensitivity [1, 12]: A; Discharge performance [2, 12]: A (At a standing time of 30 minutes or longer and shorter than 45 minutes, some nozzles cannot eject droplets.) |
| C=CC(=O)[O-].Cc1cc(C)c(C(=O)P(=O)(c2ccccc2)c2ccccc2)c(C)c1C(=O)C[N+](C)(C)C [Compound A-7] | A | A (At a standing time of 30 minutes or longer and shorter than 45 minutes, some nozzles cannot eject droplets.) |  |
| Cc1cc(C)c(C(=O)P(=O)(c2ccccc2)c2ccccc2)c(C)c1C(=O)C[N+](C)(C)Cc1ccccc1.[Cl-] [Compound A-8] | A | A (At a standing time of 30 minutes or longer and shorter than 45 minutes, some nozzles cannot eject droplets.) |  |
| Cc1cc(C)c(C(=O)P(=O)(c2ccccc2)c2ccccc2)c(C)c1C(=O)C[N+](C)(C)Cc1ccccc1.[Br-] [Compound A-9] | A | A (At a standing time of 30 minutes or longer and shorter than 45 minutes, some nozzles cannot eject droplets.) |  |
| Cc1cc(C)c(C(=O)P(=O)(c2ccccc2)c2ccccc2)c(C)c1C(=O)C[N+](C)(C)Cc1ccccc1.[I-] [Compound A-10] | A | A (At a standing time of 30 minutes or longer and shorter than 45 minutes, some nozzles cannot eject droplets.) |  |
| Cc1cc(C)c(C(=O)P(=O)(c2ccccc2)c2ccccc2)c(C)c1C(=O)COCCS(=O)(=O)[O-].[Na+] [Compound A-11] | A | A (At a standing time of 30 minutes or longer and shorter than 45 minutes, some nozzles cannot eject droplets.) |  |
| Cc1cc(C)c(C(=O)P(=O)(c2ccccc2)c2ccccc2)c(C)c1C(=O)COCCCS(=O)(=O)[O-].[Na+] [Compound A-13] | A | A (At a standing time of 30 minutes or longer and shorter than 45 minutes, some nozzles cannot eject droplets.) |  |
| Cc1cc(C)c(C(=O)P(=O)(c2ccccc2)c2ccccc2)c(C)c1C(=O)COCCCS(=O)(=O)[O-].[K+] [Compound A-14] | A | A (At a standing time of 30 minutes or longer and shorter than 45 minutes, some nozzles cannot eject droplets.) |  |
| Cc1cc(C)c(C(=O)P(=O)(c2ccccc2)c2ccccc2)c(C)c1C(=O)COC(=O)CCC(=O)[O-].[Na+] [Compound A-17] | A | A (At a standing time of 30 minutes or longer and shorter than 45 minutes, some nozzles cannot eject droplets.) |  |
| Cc1cc(C)c(C(=O)P(=O)(c2ccccc2)c2ccccc2)c(C)c1C(=O)COC(=O)CCC(=O)[O-].[K+] [Compound A-18] | A | A (At a standing time of 30 minutes or longer and shorter than 45 minutes, some nozzles cannot eject droplets.) |  |
| CC[N+](CC)(CC)CC(=O)c1c(C)cc(C)c(C(=O)P(=O)(C(=O)c2c(C)cc(C)c(C(=O)C[N+](CC)(CC)CC)c2C)c2ccccc2)c1C.[Cl-].[Cl-] [Compound A-23] | A | A (At a standing time of 30 minutes or longer and shorter than 45 minutes, some nozzles cannot eject droplets.) |  |
| CC[N+](CC)(CC)CC(=O)c1c(C)cc(C)c(C(=O)P(=O)(C(=O)c2c(C)cc(C)c(C(=O)C[N+](CC)(CC)CC)c2C)c2ccccc2)c1C.[I-].[I-] [Compound A-25] | A | A (At a standing time of 30 minutes or longer and shorter than 45 minutes, some nozzles cannot eject droplets.) |  |
| CC(C)(O)C(=O)c1ccc(OCCO)cc1 [IRGACURE 2959, reference compound] | C | A (At a standing time of 30 minutes or longer and shorter than 45 minutes, some nozzles cannot eject droplets.) |  |
